Literature values, collected in US20110092602A1, “RAPIDLY DISINTEGRATING ORAL COMPOSITIONS OF TRAMADOL” (priority 2008, published 2011).

System: reuptake of norepinephrine

SMILES: COc1cccc(C2(O)CCCCC2CN(C)C)c1 (stereo not shown) [Tramadol, 2-dimethylaminomethyl-1-(3-methoxyphenyl)cyclohexanol]
- inhibition of reuptake of norepinephrine: weak inhibition
